Laboratory results: patent publication US4889860A (Nova Pharmaceutical Corporation, priority 1987, dated 1989)

Tested on: writhing response
Assay type: in vivo, mouse
Settings: Table 7

SMILES: CN1CC[C@]23c4c5ccc(O)c4O[C@H]2[C@@H](O)C=C[C@H]3[C@H]1C5 [Morphine, morphine, reference compound]
- ED50, Acetic Acid Induced Writhing in the Mouse: 0.50 mg/kg
